Assay results reported in patent US20070099852A1, “CUCURBITACIN COMPOUNDS” (SOUTH DAKOTA STATE UNIVERSITY, priority 2005, published 2007).

Assays:
HepG2 cells = conditions: toxic over cytoprotective concentration
Description: The activity of two toxins was studied first on HepG2 cells—bromobenzene (BB) and CCl4. Cells were challenged with the toxins at different concentration levels.
Experimental conditions were standardized on silybin. Cells were challenged with CCl4 (4.5×10^−3M) in presence of silybin at various concentrations.
The ratio of IC50-to-EC50 (hereafter T/A) is also indicated in this table, which gives the margin between toxic and cytoprotective concentrations.

HSC-T6 cells = test: Serum-driven HSC-T6 proliferation, Experiment 3 (24 h, proliferating cells); format: cell-based, rat; conditions: HSC-T6, Experiment 3, IC50/EC50

## CC(C)(O)/C=C/C(=O)[C@](C)(O)[C@H]1[C@H](O)C[C@@]2(C)[C@@H]3CC=C4[C@@H](C=C(O)C(=O)C4(C)C)[C@]3(C)C(=O)C[C@]12C [I, cucurbitacin I]
HepG2 cells
  T/A (ratio of IC50 and EC50): 5.0
HSC-T6 cells
  T/A (toxic over antiproliferation concentration): 150

## CCCOC1=CC2C(=CCC3C2(C)C(=O)CC2(C)C(C(C)(O)C(=O)C=CC(C)(C)OC(C)=O)C(O)CC32C)C(C)(C)C1=O (stereo not drawn) [E-nPr]
HSC-T6 cells
  T/A (toxic over antiproliferation concentration): 8

## CC(C)(O)/C=C/C(=O)C(C)(O)C1C(O)CC2(C)C3CC=C4C(CC(=O)C(O)C4(C)C)C3(C)C(=O)CC12C (stereo not drawn) [iso-D]
HepG2 cells
  T/A (ratio of IC50 and EC50): 5.8
HSC-T6 cells
  T/A (toxic over antiproliferation concentration): 139

## CCCOC1=CC2C(=CCC3C2(C)C(=O)CC2(C)C(C(C)(O)C(=O)C=CC(C)(C)O)C(O)CC32C)C(C)(C)C1=O (stereo not drawn) [I-nPr, cucurbitacin I-nPr]
HSC-T6 cells
  T/A (toxic over antiproliferation concentration): 8

## CC(=O)OC(C)(C)/C=C/C(=O)[C@](C)(O)[C@H]1[C@H](O)C[C@@]2(C)[C@@H]3CC=C4[C@@H](C=C(O[C@@H]5O[C@H](CO)[C@@H](O)[C@H](O)[C@H]5O)C(=O)C4(C)C)[C@]3(C)C(=O)C[C@]12C [E-Gluc, cucurbitacin E glucoside]
HepG2 cells
  T/A (ratio of IC50 and EC50): 5.0
HSC-T6 cells
  T/A (toxic over antiproliferation concentration): 29

## CC(=O)OC(C)(C)/C=C/C(=O)[C@](C)(O)[C@H]1[C@H](O)C[C@@]2(C)[C@@H]3CC=C4[C@H](C[C@H](O)C(=O)C4(C)C)[C@]3(C)C(=O)C[C@]12C [B, cucurbitacin B]
HepG2 cells
  T/A (ratio of IC50 and EC50): 2.6
HSC-T6 cells
  T/A (toxic over antiproliferation concentration): 180

## CCOC1=CC2C(=CCC3C2(C)C(=O)CC2(C)C(C(C)(O)C(=O)C=CC(C)(C)OC(C)=O)C(O)CC32C)C(C)(C)C1=O (stereo not drawn) [E-Et]
HSC-T6 cells
  T/A (toxic over antiproliferation concentration): 13

## CC(C)(O)/C=C/C(=O)[C@](C)(O)C1[C@H](O)C[C@@]2(C)C3CC=C4C(C=C(O[C@@H]5O[C@H](CO)[C@@H](O)[C@H](O)[C@H]5O)C(=O)C4(C)C)[C@]3(C)C(=O)C[C@]12C (stereo partly drawn) [I-Gluc, cucurbitacin I glucoside]
HSC-T6 cells
  T/A (toxic over antiproliferation concentration): 64

## CC(C)OC1=CC2C(=CCC3C2(C)C(=O)CC2(C)C(C(C)(O)C(=O)C=CC(C)(C)O)C(O)CC32C)C(C)(C)C1=O (stereo not drawn) [I-iPr]
HSC-T6 cells
  T/A (toxic over antiproliferation concentration): 9

## COC1=CC2C(=CCC3C2(C)C(=O)CC2(C)C(C(C)(O)C(=O)CCC(C)(C)O)C(O)CC32C)C(C)(C)C1=O [L-Me, L-Me ether]
HSC-T6 cells
  T/A (toxic over antiproliferation concentration): 31

## CCOC1=CC2C(=CCC3C2(C)C(=O)CC2(C)C(C(C)(O)C(=O)C=CC(C)(C)O)C(O)CC32C)C(C)(C)C1=O (stereo not drawn) [I-Et]
HSC-T6 cells
  T/A (toxic over antiproliferation concentration): 10

## cucurbitacin E
HSC-T6 cells
  T/A (toxic over antiproliferation concentration): 54

## COC1=CC2C(=CCC3C2(C)C(=O)CC2(C)C(C(C)(O)C(=O)C=CC(C)(C)O)C(O)CC32C)C(C)(C)C1=O (stereo not drawn) [I-Me]
HepG2 cells
  T/A (ratio of IC50 and EC50): 2.9
HSC-T6 cells
  T/A (toxic over antiproliferation concentration): 62

## CC(C)(O)/C=C/C(=O)[C@](C)(O)[C@H]1[C@H](O)C[C@@]2(C)[C@@H]3CC=C4[C@@H](C[C@H](O)C(=O)C4(C)C)[C@]3(C)C(=O)C[C@]12C [D, cucurbitacin D]
HepG2 cells
  T/A (ratio of IC50 and EC50): 8.6

## Cucurbitacin E-Me ether
HepG2 cells
  T/A (ratio of IC50 and EC50): 5.0
HSC-T6 cells
  T/A (toxic over antiproliferation concentration): 33
